These results are taken from patent US20250109209A1.

Sequences of proteins named here, by UniProt entry; tags and fusion partners are left off. A change or cut given only in a name is not applied to a line headed by its entry. A line that says so, or that is headed by a name, gives the form on record, which may keep a tag or linker.
Cyno TL1A (G7PRK8, form named): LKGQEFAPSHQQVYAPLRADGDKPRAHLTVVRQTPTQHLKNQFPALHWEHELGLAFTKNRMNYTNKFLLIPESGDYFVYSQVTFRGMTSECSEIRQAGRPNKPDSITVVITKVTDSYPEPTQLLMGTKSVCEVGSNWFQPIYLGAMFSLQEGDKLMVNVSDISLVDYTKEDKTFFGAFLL

Results are given in words; binding and its absence hold for the method and conditions named. Some binding calls cover weakened binding; strength is not graded here.

B1: Antibody 1 (Fab format) (Fab, V domains shown)
VH: QVQLQESGPGLVRPSQTLSLTCTVSGFDIQDTYMHWVRQRPGRGLEWMGRIEPAGGHTKYNPSLKSRVTITRDTSKNQVSLRLSSVTAADTAVYYCASSGGMPDLWGQGSLVTVSS
VL: DIQMTQSPSSLSASVGDRVTITCRASQGVEYMYWYQQKPGKAPKLLIYGASNLASGVPSRFSGSGSGTDFTFTISSLQPEDIATYYCQQWEGNPRTFGQGTKVEIK
B2: Antibody 4 (Fab format) (Fab, V domains shown)
VH: QVQLQESGPGLVRPSQTLSLTCTVSGFDMADTYMHWVRQRPGRGLEWMGRIEPAGGHTKYNPSLKSRVTITRDTSKNQVSLRLSSVTAADTAVYYCVRSGGLPDMWGQGSLVTVSS
VL: DIQMTQSPSSLSASVGDRVTITCRASSSVSYMYWYQQKPGKAPKLLIYGASNLASGVPSRFSGSGSGTDFTFTISSLQPEDIATYYCQQWEGNPRTFGQGTKVEIK
B3: Antibody 7 (Fab format) (Fab, V domains shown)
VH: QVQLQESGPGLVRPSQTLSLTCTVSGFDMGDTYMHWVRQRPGRGLEWMGRIEPAAGHTKYNPSLKSRVTITRDTSKNQVSLRLSSVTAADTAVYYCVRSGGLPDIWGQGSLVTVSS
VL: DIQMTQSPSSLSASVGDRVTITCRASQGVEYMYWYQQKPGKAPKLLIYGASNLASGVPSRFSGSGSGTDFTFTISSLQPEDIATYYCQQWEGNPRTFGQGTKVEIK
B4: Antibody 5 (Fab format) (Fab, V domains shown)
VH: QVQLQESGPGLVRPSQTLSLTCTVSGFDMQDTYMHWVRQRPGRGLEWMGRIEPASGHTKYNPSLKSRVTITRDTSKNQVSLRLSSVTAADTAVYYCVRSGGLPDVWGQGSLVTVSS
VL: DIQMTQSPSSLSASVGDRVTITCRASQGVMYMYWYQQKPGKAPKLLIYGASNLASGVPSRFSGSGSGTDFTFTISSLQPEDIATYYCQQWEGNPRTFGQGTKVEIK
B5: Antibody 27 (Fab format) (Fab, V domains shown)
VH: QVQLQESGPGLVRPSQTLSLTCTVSGFDIQDTYMHWVRQRPGRGLEWMGRIEPAGGHTKYNPSLKSRVTITRDTSKNQVSLRLSSVTAADTAVYYCVRSGGLPDAWGQGSLVTVSS
VL: DIQMTQSPSSLSASVGDRVTITCRASQGVRYMYWYQQKPGKAPKLLIYATSNLASGVPSRFSGSGSGTDFTFTISSLQPEDIATYYCQQWEGNPRTFGQGTKVEIK
B6: Antibody 2 (Fab format) (Fab, V domains shown)
VH: QVQLQESGPGLVRPSQTLSLTCTVSGLDPDDTYMHWVRQRPGRGLEWMGRIEPAGGHTKYNPSLKSRVTITRDTSKNQVSLRLSSVTAADTAVYYCVISGGLPDVWGQGSLVTVSS
VL: DIQMTQSPSSLSASVGDRVTITCRASSSVSYMYWYQQKPGKAPKLLIYATSNLASGVPSRFSGSGSGTDFTFTISSLQPEDIATYYCQQWEGNPRTFGQGTKVEIK
B7: Antibody 16 (Fab format) (Fab, V domains shown)
VH: QVQLQESGPGLVRPSQTLSLTCTVSGFDMQSTYMHWVRQRPGRGLEWMGRIEPAGGHTKYNPSLKSRVTITRDTSKNQVSLRLSSVTAADTAVYYCVRSGGLPDVWGQGSLVTVSS
VL: DIQMTQSPSSLSASVGDRVTITCRASQGVEYMYWYQQKPGKAPKLLIYGASNLASGVPSRFSGSGSGTDFTFTISSLQPEDIATYYCQQWEGNPRTFGQGTKVEIK
B8: Antibody 30 (Fab format) (Fab, V domains shown)
VH: QVQLQESGPGLVRPSQTLSLTCTVSGFDIQDTYMHWVRQRPGRGLEWMGRIEPAGGHTKYNPSLKSRVTITRDTSKNQVSLRLSSVTAADTAVYYCVRSGGLPDAWGQGSLVTVSS
VL: DIQMTQSPSSLSASVGDRVTITCRASSSVSYMYWYQQKPGKAPKLLIYSASNLASGVPSRFSGSGSGTDFTFTISSLQPEDIATYYCQQWEGNPRTFGQGTKVEIK
B9: Antibody 19 (Fab format) (Fab, V domains shown)
VH: QVQLQESGPGLVRPSQTLSLTCTVSGFDITDTYMHWVRQRPGRGLEWMGRIEPAGGHTKYNPSLKSRVTITRDTSKNQVSLRLSSVTAADTAVYYCVRSGGLPDVWGQGSLVTVSS
VL: DIQMTQSPSSLSASVGDRVTITCRASQGVEYMYWYQQKPGKAPKLLIYYASNLASGVPSRFSGSGSGTDFTFTISSLQPEDIATYYCQQWEGNPRTFGQGTKVEIK
B10: Antibody 8 (Fab format) (Fab, V domains shown)
VH: QVQLQESGPGLVRPSQTLSLTCTVSGFDMQSTYMHWVRQRPGRGLEWMGRIEPAGGHTKYNPSLKSRVTITRDTSKNQVSLRLSSVTAADTAVYYCVRSGGLPDVWGQGSLVTVSS
VL: DIQMTQSPSSLSASVGDRVTITCRASSSVSYMYWYQQKPGKAPKLLIYGASNLASGVPSRFSGSGSGTDFTFTISSLQPEDIATYYCQQWEGNPRTFGQGTKVEIK
B11: Antibody 24 (Fab format) (Fab, V domains shown)
VH: QVQLQESGPGLVRPSQTLSLTCTVSGFDIQDTYMHWVRQRPGRGLEWMGRIEPAGGHTKYNPSLKSRVTITRDTSKNQVSLRLSSVTAADTAVYYCVRSGGLPDAWGQGSLVTVSS
VL: DIQMTQSPSSLSASVGDRVTITCRASQGVGYMYWYQQKPGKAPKLLIYATSNLASGVPSRFSGSGSGTDFTFTISSLQPEDIATYYCQQWEGNPRTFGQGTKVEIK
B12: Antibody 11 (Fab format) (Fab, V domains shown)
VH: QVQLQESGPGLVRPSQTLSLTCTVSGFDMGDTYMHWVRQRPGRGLEWMGRIEPAGGHTKYNPSLKSRVTITRDTSKNQVSLRLSSVTAADTAVYYCVRSGGMPDVWGQGSLVTVSS
VL: DIQMTQSPSSLSASVGDRVTITCRASQGVEYMYWYQQKPGKAPKLLIYSASNLASGVPSRFSGSGSGTDFTFTISSLQPEDIATYYCQQWEGNPRTFGQGTKVEIK
B13: Antibody 3 (Fab format) (Fab, V domains shown)
VH: QVQLQESGPGLVRPSQTLSLTCTVSGFDIQDTYMHWVRQRPGRGLEWMGRIEPAGGHTKYNPSLKSRVTITRDTSKNQVSLRLSSVTAADTAVYYCVRSGGLPDAWGQGSLVTVSS
VL: DIQMTQSPSSLSASVGDRVTITCRASQGVRYMYWYQQKPGKAPKLLIYGASNLASGVPSRFSGSGSGTDFTFTISSLQPEDIATYYCQQWEGNPRTFGQGTKVEIK
B14: Antibody 18 (Fab format) (Fab, V domains shown)
VH: QVQLQESGPGLVRPSQTLSLTCTVSGFDMGDTYMHWVRQRPGRGLEWMGRIEPAGGHTKYNPSLKSRVTITRDTSKNQVSLRLSSVTAADTAVYYCVRSGGMPDVWGQGSLVTVSS
VL: DIQMTQSPSSLSASVGDRVTITCRASSSVSYMYWYQQKPGKAPKLLIYYASNLASGVPSRFSGSGSGTDFTFTISSLQPEDIATYYCQQWEGNPRTFGQGTKVEIK
B15: Antibody 15 (Fab format) (Fab, V domains shown)
VH: QVQLQESGPGLVRPSQTLSLTCTVSGFDIQDTYMHWVRQRPGRGLEWMGRIEPAGGHTKYNPSLKSRVTITRDTSKNQVSLRLSSVTAADTAVYYCVRSGGLPDAWGQGSLVTVSS
VL: DIQMTQSPSSLSASVGDRVTITCRASQGIYYMYWYQQKPGKAPKLLIYGASNLASGVPSRFSGSGSGTDFTFTISSLQPEDIATYYCQQWEGNPRTFGQGTKVEIK
B16: Antibody 10 (Fab format) (Fab, V domains shown)
VH: QVQLQESGPGLVRPSQTLSLTCTVSGLDPDDTYMHWVRQRPGRGLEWMGRIEPAGGHTKYNPSLKSRVTITRDTSKNQVSLRLSSVTAADTAVYYCVISGGLPDVWGQGSLVTVSS
VL: DIQMTQSPSSLSASVGDRVTITCRASQGVEYMYWYQQKPGKAPKLLIYGASNLASGVPSRFSGSGSGTDFTFTISSLQPEDIATYYCQQWEGNPRTFGQGTKVEIK
B17: Antibody 9 (Fab format) (Fab, V domains shown)
VH: QVQLQESGPGLVRPSQTLSLTCTVSGFDIQDTYMHWVRQRPGRGLEWMGRIEPAGGHTKYNPSLKSRVTITRDTSKNQVSLRLSSVTAADTAVYYCVRSGGLPDAWGQGSLVTVSS
VL: DIQMTQSPSSLSASVGDRVTITCRASQGVGYMYWYQQKPGKAPKLLIYSASNLASGVPSRFSGSGSGTDFTFTISSLQPEDIATYYCQQWEGNPRTFGQGTKVEIK
B18: Antibody 20 (Fab format) (Fab, V domains shown)
VH: QVQLQESGPGLVRPSQTLSLTCTVSGFDIQDTYMHWVRQRPGRGLEWMGRIEPASGHTKYNPSLKSRVTITRDTSKNQVSLRLSSVTAADTAVYYCARSGGMPDMWGQGSLVTVSS
VL: DIQMTQSPSSLSASVGDRVTITCRASQGVMYMYWYQQKPGKAPKLLIYGASNLASGVPSRFSGSGSGTDFTFTISSLQPEDIATYYCQQWEGNPRTFGQGTKVEIK
B19: Antibody 12 (Fab format) (Fab, V domains shown)
VH: QVQLQESGPGLVRPSQTLSLTCTVSGFDITDTYMHWVRQRPGRGLEWMGRIEPAGGHTKYNPSLKSRVTITRDTSKNQVSLRLSSVTAADTAVYYCVRSGGLPDVWGQGSLVTVSS
VL: DIQMTQSPSSLSASVGDRVTITCRASQGVEYMYWYQQKPGKAPKLLIYSASNLASGVPSRFSGSGSGTDFTFTISSLQPEDIATYYCQQWEGNPRTFGQGTKVEIK
B20: Antibody 13 (Fab format) (Fab, V domains shown)
VH: QVQLQESGPGLVRPSQTLSLTCTVSGFDYQDTYMHWVRQRPGRGLEWMGRIDPASGHTKYNPSLKSRVTITRDTSKNQVSLRLSSVTAADTAVYYCAVSGGMPDVWGQGSLVTVSS
VL: DIQMTQSPSSLSASVGDRVTITCRASQGVEYMYWYQQKPGKAPKLLIYATSNLASGVPSRFSGSGSGTDFTFTISSLQPEDIATYYCQQWEGNPRTFGQGTKVEIK
B21: Antibody 6 (Fab format) (Fab, V domains shown)
VH: QVQLQESGPGLVRPSQTLSLTCTVSGFDMADTYMHWVRQRPGRGLEWMGRIEPAGGHTKYNPSLKSRVTITRDTSKNQVSLRLSSVTAADTAVYYCVRSGGLPDMWGQGSLVTVSS
VL: DIQMTQSPSSLSASVGDRVTITCRASQGVEYMYWYQQKPGKAPKLLIYSASNLASGVPSRFSGSGSGTDFTFTISSLQPEDIATYYCQQWEGNPRTFGQGTKVEIK
B22: Antibody 17 (Fab format) (Fab, V domains shown)
VH: QVQLQESGPGLVRPSQTLSLTCTVSGFDMGDTYMHWVRQRPGRGLEWMGRIEPAAGHTKYNPSLKSRVTITRDTSKNQVSLRLSSVTAADTAVYYCVRSGGLPDVWGQGSLVTVSS
VL: DIQMTQSPSSLSASVGDRVTITCRASQGVEYMYWYQQKPGKAPKLLIYGASNLASGVPSRFSGSGSGTDFTFTISSLQPEDIATYYCQQWEGNPRTFGQGTKVEIK

In the assay the target is Cyno TL1A (cyno) (UniProt G7PRK8). Description: SPR, Fab format. A general note: In SPR one partner is held on a chip, and binding of the other changes the refractive index at the surface.
For B1, the binding result is listed as “binds”. With B2 the entry was “binds”; with B3, “binds”. With B4 the entry was “binds”. With B5 the entry was “binds”; with B6, “binds”; with B7, “binds”. Consider B8, for which the binding result is “binds”. With B9, the binding result was “binds”. As to B10, the binding entry is “binds”.

Consider B11, for which the binding result is on record as “binds”. Next, B12: “binds”; B13: “binds”; B14: “binds”. With B15 the entry was “binds”; with B16, “binds”; with B17, “binds”. With B18 the entry was “binds”; with B19, “binds”. Turning to B20, the binding entry is given as “binds”.

In the case of B21, the binding result is reported as “binds”. Next, B22: “binds”.
